No constants are given. Whether binding was seen depends on the method and setting. Binding seen in cells or lysates may run through a third protein.
Legend:
Experiment in all cases: co-IP; 100 μg whole cell lysate of NCI-H2228 cells (wild-type, LAP+ or LIP+) immunoprecipitated overnight at 4 °C with anti-C/EBP-β (clone C-19, 1/50) and Protein A/G magnetic beads, blotted for HIF-1α; normoxic cells by the legend, hypoxic cells by the text
[1] = molecular target: CCAAT/Enhancer Binding Protein-β (C/EBP-β), endogenous in wild-type NCI-H2228 cells (human (endogenous in NCI-H2228)) (UniProt P17676)
[2] = molecular target: C/EBP-β LAP isoform, overexpressed in NCI-H2228 cells (UniProt P17676)
[3] = molecular target: C/EBP-β LIP isoform, overexpressed in NCI-H2228 cells (UniProt P17676)

Sequences of proteins named here, by UniProt entry; tags and fusion partners are left off. A change or cut given only in a name is not applied to a line headed by its entry. Residues count along the entry.
UniProt P17676: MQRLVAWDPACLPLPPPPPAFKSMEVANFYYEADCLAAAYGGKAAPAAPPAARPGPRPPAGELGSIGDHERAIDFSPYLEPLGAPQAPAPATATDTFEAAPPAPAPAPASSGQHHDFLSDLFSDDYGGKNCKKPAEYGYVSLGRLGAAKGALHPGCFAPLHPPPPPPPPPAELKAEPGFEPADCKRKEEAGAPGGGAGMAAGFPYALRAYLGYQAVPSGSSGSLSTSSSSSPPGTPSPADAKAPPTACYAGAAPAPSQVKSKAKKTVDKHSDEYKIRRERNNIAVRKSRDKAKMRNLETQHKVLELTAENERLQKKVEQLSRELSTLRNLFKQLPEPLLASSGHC
C/EBP-β LAP isoform, overexpressed in NCI-H2228 cells: residues 24-345 of P17676
C/EBP-β LIP isoform, overexpressed in NCI-H2228 cells: residues 199-345 of P17676
UniProt Q16665: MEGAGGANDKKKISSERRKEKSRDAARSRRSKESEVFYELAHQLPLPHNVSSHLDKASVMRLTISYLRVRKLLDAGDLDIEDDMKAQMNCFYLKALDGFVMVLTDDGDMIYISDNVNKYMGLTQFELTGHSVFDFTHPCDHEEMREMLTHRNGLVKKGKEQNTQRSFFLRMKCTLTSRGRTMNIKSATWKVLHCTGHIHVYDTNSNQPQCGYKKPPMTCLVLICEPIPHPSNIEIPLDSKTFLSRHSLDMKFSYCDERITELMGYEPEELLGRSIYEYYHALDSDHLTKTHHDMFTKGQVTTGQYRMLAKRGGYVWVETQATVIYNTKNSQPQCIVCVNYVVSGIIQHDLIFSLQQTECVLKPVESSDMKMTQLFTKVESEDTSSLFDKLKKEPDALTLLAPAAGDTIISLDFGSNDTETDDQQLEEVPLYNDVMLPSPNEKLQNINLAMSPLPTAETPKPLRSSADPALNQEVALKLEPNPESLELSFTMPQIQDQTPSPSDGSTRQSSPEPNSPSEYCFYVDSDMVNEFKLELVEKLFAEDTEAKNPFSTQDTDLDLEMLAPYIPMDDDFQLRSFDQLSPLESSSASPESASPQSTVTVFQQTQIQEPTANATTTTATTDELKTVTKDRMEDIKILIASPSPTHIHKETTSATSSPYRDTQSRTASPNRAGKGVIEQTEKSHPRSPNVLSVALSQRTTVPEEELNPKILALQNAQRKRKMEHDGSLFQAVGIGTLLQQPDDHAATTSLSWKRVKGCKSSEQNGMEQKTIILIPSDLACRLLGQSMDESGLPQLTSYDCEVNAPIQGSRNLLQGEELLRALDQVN

Measured: binding

Hypoxia-inducible factor-1α (HIF-1α) (from UniProt Q16665 1-826)
no binding: all assays above

Reference: paper PMC9373288
